Test results published in paper PMC12435150.
No constants are given. Whether binding was seen depends on the method and setting. In cells and extracts the contact can be indirect. Some binding calls cover weakened binding; strength is not graded here.

Chains of the proteins cited; added tags and fusions are not shown. Residues count along the entry.
UniProt O89109: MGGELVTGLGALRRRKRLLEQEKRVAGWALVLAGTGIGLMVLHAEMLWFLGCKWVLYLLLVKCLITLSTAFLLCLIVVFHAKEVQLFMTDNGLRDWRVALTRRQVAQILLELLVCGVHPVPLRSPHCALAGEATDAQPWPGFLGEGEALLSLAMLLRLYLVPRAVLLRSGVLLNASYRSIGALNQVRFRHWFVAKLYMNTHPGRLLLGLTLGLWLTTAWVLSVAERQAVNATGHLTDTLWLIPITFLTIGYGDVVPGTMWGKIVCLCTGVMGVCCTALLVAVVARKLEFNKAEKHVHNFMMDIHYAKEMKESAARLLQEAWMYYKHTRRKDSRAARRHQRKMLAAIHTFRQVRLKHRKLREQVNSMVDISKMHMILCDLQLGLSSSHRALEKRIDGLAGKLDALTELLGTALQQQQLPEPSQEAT
UniProt Q96D31: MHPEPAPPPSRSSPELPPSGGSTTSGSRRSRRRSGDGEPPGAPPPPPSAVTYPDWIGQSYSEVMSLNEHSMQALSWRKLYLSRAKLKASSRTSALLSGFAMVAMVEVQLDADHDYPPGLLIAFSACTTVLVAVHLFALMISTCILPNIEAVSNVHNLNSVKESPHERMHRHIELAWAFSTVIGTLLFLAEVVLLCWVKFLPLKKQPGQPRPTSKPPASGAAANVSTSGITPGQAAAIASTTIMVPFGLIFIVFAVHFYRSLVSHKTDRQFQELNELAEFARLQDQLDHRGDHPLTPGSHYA
UniProt Q13586, residues 23-685: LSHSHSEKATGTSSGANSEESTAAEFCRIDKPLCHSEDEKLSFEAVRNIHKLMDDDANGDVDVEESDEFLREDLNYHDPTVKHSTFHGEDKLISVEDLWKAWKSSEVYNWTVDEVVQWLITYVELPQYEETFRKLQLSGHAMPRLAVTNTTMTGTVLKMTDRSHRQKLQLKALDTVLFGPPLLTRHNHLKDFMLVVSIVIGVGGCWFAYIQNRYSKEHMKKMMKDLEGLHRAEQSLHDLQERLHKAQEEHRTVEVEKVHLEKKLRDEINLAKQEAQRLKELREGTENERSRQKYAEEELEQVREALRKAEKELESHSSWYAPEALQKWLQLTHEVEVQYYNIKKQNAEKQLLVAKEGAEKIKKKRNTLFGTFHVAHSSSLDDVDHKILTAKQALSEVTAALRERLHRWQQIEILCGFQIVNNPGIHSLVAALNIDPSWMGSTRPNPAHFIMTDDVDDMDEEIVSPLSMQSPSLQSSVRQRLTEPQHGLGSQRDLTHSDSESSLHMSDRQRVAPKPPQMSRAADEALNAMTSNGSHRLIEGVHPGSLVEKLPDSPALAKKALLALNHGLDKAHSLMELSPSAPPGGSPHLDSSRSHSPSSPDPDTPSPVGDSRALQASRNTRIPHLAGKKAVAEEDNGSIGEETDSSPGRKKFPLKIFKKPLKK

Tests used:
[1] = molecular target: KCa3.1-GFP-myc (cell line not stated for the experiment) (UniProt O89109); experiment: co-IP; co-IP of KCa3.1 (cells with KCa3.1-GFP-myc, NP-40 lysis buffer, anti-GFP or anti-myc on Dynabeads Protein G); cell line and antibody not stated for these experiments (Figure S6A, C, D)
[2] = molecular target: KCa3.1-GFP-myc (in HEK293 cells) (UniProt O89109); experiment: co-IP; HEK293 stably expressing KCa3.1-GFP-myc against non-transfected cells; NP-40 lysis buffer; anti-GFP on Dynabeads Protein G overnight at 4°C; blot with anti-STIM1; basal and after 2 uM thapsigargin and calcium re-addition (SOCE activated)

binding [1] | binding [2] | Substance
no binding | – | Orai1 (from UniProt Q96D31 1-301)
– | binds | STIM1 (in HEK293 cells) (from UniProt Q13586 23-685)
